This is an account of results in paper PMC5857993.

The chains behind the UniProt entries cited, without tags or fusion partners.
UniProt O14733: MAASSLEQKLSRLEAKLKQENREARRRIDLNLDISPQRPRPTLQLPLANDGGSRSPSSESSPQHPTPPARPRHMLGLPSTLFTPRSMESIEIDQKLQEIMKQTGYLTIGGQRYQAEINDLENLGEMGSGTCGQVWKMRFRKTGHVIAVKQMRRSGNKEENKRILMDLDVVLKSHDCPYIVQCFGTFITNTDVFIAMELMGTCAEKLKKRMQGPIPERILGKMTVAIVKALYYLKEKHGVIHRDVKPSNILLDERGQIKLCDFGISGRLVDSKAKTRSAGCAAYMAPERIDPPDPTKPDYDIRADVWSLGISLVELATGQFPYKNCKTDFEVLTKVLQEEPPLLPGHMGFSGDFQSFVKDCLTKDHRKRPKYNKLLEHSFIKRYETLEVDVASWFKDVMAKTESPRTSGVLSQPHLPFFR
UniProt Q9H4L4: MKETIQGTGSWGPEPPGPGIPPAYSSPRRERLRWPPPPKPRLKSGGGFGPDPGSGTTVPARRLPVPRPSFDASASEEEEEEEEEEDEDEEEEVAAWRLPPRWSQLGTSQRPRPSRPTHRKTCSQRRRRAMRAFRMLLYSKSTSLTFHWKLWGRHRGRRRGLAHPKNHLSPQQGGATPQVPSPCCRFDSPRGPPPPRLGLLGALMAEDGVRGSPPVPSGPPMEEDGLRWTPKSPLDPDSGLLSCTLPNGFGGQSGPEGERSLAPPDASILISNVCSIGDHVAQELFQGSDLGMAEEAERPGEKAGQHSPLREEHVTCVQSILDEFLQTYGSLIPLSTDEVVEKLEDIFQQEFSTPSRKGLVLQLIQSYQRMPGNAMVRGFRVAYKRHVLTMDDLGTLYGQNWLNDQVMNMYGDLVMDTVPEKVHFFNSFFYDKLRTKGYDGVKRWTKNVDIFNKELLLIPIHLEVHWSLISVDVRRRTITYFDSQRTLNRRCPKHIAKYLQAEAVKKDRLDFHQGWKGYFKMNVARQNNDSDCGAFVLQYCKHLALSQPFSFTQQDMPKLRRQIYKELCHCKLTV
UniProt P45983: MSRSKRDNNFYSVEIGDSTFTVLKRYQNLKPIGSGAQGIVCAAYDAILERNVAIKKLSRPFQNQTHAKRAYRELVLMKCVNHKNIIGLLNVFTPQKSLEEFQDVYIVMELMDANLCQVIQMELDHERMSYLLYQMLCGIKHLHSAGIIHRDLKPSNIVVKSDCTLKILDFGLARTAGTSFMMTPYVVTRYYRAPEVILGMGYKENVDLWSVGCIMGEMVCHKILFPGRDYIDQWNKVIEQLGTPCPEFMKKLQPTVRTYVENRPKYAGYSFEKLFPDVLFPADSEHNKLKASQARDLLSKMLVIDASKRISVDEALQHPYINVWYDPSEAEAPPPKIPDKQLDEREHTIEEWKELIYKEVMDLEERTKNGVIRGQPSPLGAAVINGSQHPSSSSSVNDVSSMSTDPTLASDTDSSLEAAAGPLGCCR

Results are given in words; binding and its absence hold for the method and conditions named. For some of these results: Binding seen in cells or lysates may run through a third protein. Some binding calls cover weakened binding; strength is not graded here.

Assay [1] addresses FLAG–MKK7 (UniProt O14733). The assay is described as follows: co-IP; HEK293T cells co-transfected for 48 h; FLAG-M2 beads for immunoprecipitation, immunoblot with anti-MKK7 or anti-GFP; lysis buffer 50 mM Tris-HCl pH 7.4, 150 mM NaCl, 1 mM EDTA, 1% Triton X-100; overnight at 4 °C. (In general: Immunoblotting shows a protein as a band on a membrane.)
Assay [2] concerns the target FLAG–SENP3 (UniProt Q9H4L4). Described as above.
The target of assay [3] is endogenous MKK7 (human (endogenous in TLR4 HEK293)) (UniProt O14733). The assay is described as follows: co-IP; endogenous proteins in TLR4 293 cells, with or without LPS (100 ng/ml) for 30 min; RIPA buffer, specific antibodies and Protein A/G-agarose beads, 4 °C.
Assay [4] concerns the target GST–MKK7 (UniProt O14733). The assay is described as follows: pull-down; GST–MKK7 or GST–MKK7–SUMO3 on glutathione-Sepharose incubated with 1 μg JNK1 overnight at 4 °C; 50 mM Tris pH 7.4, 150 mM NaCl, 1 mM EDTA, 1% Triton X-100; JNK1 detected by immunoblot; both purified.

As for “GFP–SENP3 (from UniProt Q9H4L4 1-574) (enzyme)”, in assay [1], the binding result is given as “binds”.

Regarding “MKK7 (from plasmid pCDNA–MKK7) (from UniProt O14733 1-419) (enzyme)”, in assay [2], the binding result is recorded as “binds”. Take “endogenous SENP3 (from UniProt Q9H4L4 1-574) (enzyme)”: in assay [3], the binding entry is on record as “binds”.

“unactivated recombinant human JNK1 (from UniProt P45983 1-427) (enzyme)”: the binding entry in assay [4] was “binds”.
